The conditions of series [1]: fraction absorbed, oral; cited from earlier work.
A short description of another series: in vitro. The conditions noted are these: human, Caco-2.

Molecules are shown by their SMILES.

By Papp is commonly meant the rate of passage across a membrane or cell layer, normalised by area and donor concentration. Read a low Papp as slow passage. Consider `COC(=O)C1=C(C)NC(C)=C(C(=O)OC)C1c1ccccc1[N+](=O)[O-]` [nifedipine, reference compound], for which the “reported human Fa” value in series [1] is 100 [8] %. Also, in “in vitro”, the Papp is 42.4 ± 4.4 ×10⁻⁶ cm/s.

The record behind these values is paper PMC6976901 (Toxicology Reports, 2020).
